From ChEMBL document CHEMBL3988442, “University of Dundee, Small-Polar-MMV Screening Library” (2021).

The chains behind the UniProt entries cited, without tags or fusion partners.
UniProt P9WPC5, whole entry: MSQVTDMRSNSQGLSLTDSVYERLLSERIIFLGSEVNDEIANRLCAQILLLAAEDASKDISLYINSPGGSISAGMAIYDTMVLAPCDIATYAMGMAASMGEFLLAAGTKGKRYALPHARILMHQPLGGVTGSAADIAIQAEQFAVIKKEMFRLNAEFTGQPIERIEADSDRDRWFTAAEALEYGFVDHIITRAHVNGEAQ
UniProt P9WPC3, whole entry partner: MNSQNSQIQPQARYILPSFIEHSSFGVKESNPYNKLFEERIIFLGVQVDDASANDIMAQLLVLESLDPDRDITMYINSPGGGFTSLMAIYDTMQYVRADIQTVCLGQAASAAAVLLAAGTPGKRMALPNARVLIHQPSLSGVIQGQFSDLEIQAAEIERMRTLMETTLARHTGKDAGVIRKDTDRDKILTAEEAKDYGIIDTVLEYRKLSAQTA
UniProt P9WFT3, whole entry: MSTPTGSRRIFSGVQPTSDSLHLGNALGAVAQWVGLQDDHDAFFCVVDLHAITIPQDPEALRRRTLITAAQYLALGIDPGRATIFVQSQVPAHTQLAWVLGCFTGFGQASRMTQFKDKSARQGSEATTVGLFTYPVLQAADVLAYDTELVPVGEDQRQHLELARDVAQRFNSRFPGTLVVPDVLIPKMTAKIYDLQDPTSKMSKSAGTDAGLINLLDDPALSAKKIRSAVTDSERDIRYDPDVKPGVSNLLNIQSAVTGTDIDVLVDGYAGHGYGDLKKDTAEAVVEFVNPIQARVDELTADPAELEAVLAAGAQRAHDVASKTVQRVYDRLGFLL
UniProt P9WNZ1, whole entry: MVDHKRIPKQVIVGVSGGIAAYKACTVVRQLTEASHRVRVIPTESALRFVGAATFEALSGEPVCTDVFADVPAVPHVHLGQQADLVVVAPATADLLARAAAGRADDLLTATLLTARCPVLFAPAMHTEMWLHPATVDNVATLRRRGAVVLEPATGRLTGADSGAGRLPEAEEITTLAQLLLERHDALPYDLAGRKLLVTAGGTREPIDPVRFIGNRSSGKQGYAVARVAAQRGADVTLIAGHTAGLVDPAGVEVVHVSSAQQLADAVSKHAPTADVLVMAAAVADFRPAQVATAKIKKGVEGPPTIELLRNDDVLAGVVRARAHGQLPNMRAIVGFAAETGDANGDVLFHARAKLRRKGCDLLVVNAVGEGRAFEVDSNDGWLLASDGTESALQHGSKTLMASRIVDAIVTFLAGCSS

The filed quantity is “Percent Effect” (%).
The controls that fix the scale are not given in the record; negative values are as filed.
The compounds are a random part of those screened.
A dash means the value is not listed here; it may have been measured.

ClpP1P2: 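Protease assay of ClpP1P2, read by the AMC dye that it sets free. Target: ClpP1P2, Mycobacterium tuberculosis (UniProt P9WPC5 and UniProt P9WPC3). Tested at 50 µM. Direction is inferred from only a few compounds that gave an IC50; most scored high, so higher reads as stronger inhibition. Most other retested compounds had strongly negative values. Of about 69,000 compounds tested this way, about 10 (0.015%) reached 50% or more in at least one test.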
Toxoplasma: 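Assay of Toxoplasma gondii numbers, read through their beta-galactosidase reporter with a colour substrate. Compounds at 10 µM. Higher reads as fewer parasites (inferred from which compounds were picked for retests). About 67,000 compounds were tested under these conditions; 0.38% (about 260) showed 50% or more at least once.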
MtTrpRS: 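Tryptophan-tRNA ligase, Mycobacterium tuberculosis (UniProt P9WFT3). Enzyme assay of tryptophanyl-tRNA synthetase; the read-out is not stated. Tested at 10 µM. Higher most likely means stronger inhibition; the record gives no direction and few retests gave an IC50. Size under these conditions: about 65,000 compounds, about 64 of them at 50% or above in at least one test.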
CoaBC: 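Enzyme assay of CoaBC with a phosphate dye (Biomol Green) read at 650 nm. Target: Coenzyme A biosynthesis protein CoaBC, Mycobacterium tuberculosis (UniProt P9WNZ1). Tested at 30 µM. Direction is inferred from only a few compounds that gave an IC50; most scored high, so higher reads as stronger inhibition. Most strong results did not repeat in a second test. About 67,000 compounds were tested under these conditions; 0.06% (about 40) showed 50% or more at least once.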

SMILES	ClpP1P2	Toxoplasma	MtTrpRS	CoaBC
Cc1cc(OCC(=O)NC(C)c2ccc(N3CCOCC3)cc2)no1 (stereo unspecified)	-6.519	10.93	-0.08285	10.45
N#Cc1cccc(N2CCC(CO)(CCc3ccccc3)CC2)n1	-9.194	-32.22	1.525	5.109
CCc1nccn1-c1cccc(C2CCCN2)n1.Cl.Cl (stereo unspecified)	-	10.85	-	-
[H][C@]12CC[C@]([H])(CN(Cc3ccccc3)C1)N(Cc1nnc(C3CC3)o1)C2	-	-5.474	-	-
CN(C1CCc2ccccc2C1)S(C)(=O)=O (stereo unspecified)	-4.194	-1.38	5.369	1.606
CC(C)NC(=O)c1ccc2c(c1)nc1n2CCN(Cc2ccco2)C1	-14.74	-25.12	4.339	5.949
O=C(O)C(F)(F)F.[H][C@@]12COC[C@]1([H])[C@@H](OCc1csc(C)n1)CN2C(=O)c1cnoc1C	-	23.12	-	-
Cc1cnc(C(=O)N2CCNCC2C(=O)NCc2ccncc2)cn1 (stereo unspecified)	-3.759	-4.11	-7.637	0.8547
Nc1nnnn1NCc1cccc2ccccc12	-19.89	9.977	3.055	2.041
Cc1noc(C2CCN(C(=O)c3ccc(N(C)C)nc3)CC2)n1	15.31	-6.692	-0.6681	2.073
CC(C)c1nc(C2CCCN2Cc2ccn(C)c(=O)c2)no1 (stereo unspecified)	19.45	-3.835	-0.3712	2.073
Cc1nn(CC(F)F)c2c1c(C(F)F)cc(=O)n2CC(=O)O	-1.741	-36.16	0.5181	-4.388
CC(C)N1CCc2c(c(COc3cncnc3)nn2CC2CC2)C1	-9.808	-	-5.849	4.863
CSc1nnc(N(CCC#N)CCC#N)s1	-9.903	1.741	-5.575	-1.151
CN(C)C(=O)CN1CCC2(CC1)COc1ccccc1S(=O)(=O)N(C)C2	-14.93	-	-7.169	-2.716
O=C(Nc1nc(-c2ccccc2)ns1)N1CC[C@H](O)C1	-15.21	15.26	-5.033	1.527
COCC(=O)N1C[C@@H](O)[C@H](N2CCN(c3ccccc3)CC2)C1	-12.69	7.613	-3.298	2.219
COCC(=O)N1CCCN(Cc2c(C)nc3ccc(Cl)cn23)CC1	10.16	-5.881	1.68	11.57
O=C(O)C(F)(F)F.O=C(O)C(F)(F)F.[H][C@@]12OCCN(CC3CCOCC3)[C@@]1([H])CC[C@H]2OCc1ccncc1	-	1.13	-	-
CN(C)C(=O)N1CC[C@H]2[C@H]1CCN2c1nncs1	-2.443	-	0.1079	-
COc1cc(CNc2ccc(C)c(Cl)c2)ccc1OCC(N)=O	7.138	7.867	-2.617	-4.245
Cc1nc(COC[C@]23COC[C@H]2CN(Cc2ccoc2)C3)cs1	-8.995	-	4.359	-9.692
CCOc1ncccc1NC(=O)Nc1c(C)nn(C(C)C)c1C	2.65	-0.2273	3.039	7.393
Cc1nc(CN2CCCC(NCc3ccc(C(N)=O)cc3)C2)no1 (stereo unspecified)	-12.03	-18.22	-8.323	10.71
CC(NC(=O)N(C)Cc1cnn(C)c1)c1nncn1C (stereo unspecified)	-3.291	17.33	-2.124	-1.775
Nc1nccc(C2CCN(CCO)C2)n1 (stereo unspecified)	7.724	-16.54	2.732	19.58
O[C@H]1CC[C@@H](Cc2cc(-c3ccc(F)cc3)on2)O[C@@H]1CNCC1CC1	-3.13	5.788	1.022	-14.19
CC(Cn1cccn1)NC(=O)Nc1ccc(F)cc1 (stereo unspecified)	13.83	2.094	-9.668	-7.595
Cc1cccc(CN2C(=O)CCC23CCN(c2ccccn2)CC3)n1.O=C(O)C(F)(F)F.O=C(O)C(F)(F)F	-	-2.844	-	-
CNc1nc(C(=O)N2CCC3(CCCN(C)C3=O)C2)cs1 (stereo unspecified)	-17.38	9.049	-0.602	-5.854
Cc1noc(CNC(=O)CN(C)c2nc3c(F)cccc3s2)n1	-0.7894	11.79	3.083	1.908
O=C(Nc1nccs1)N1CCCC(N2CCNC2=O)C1 (stereo unspecified)	5.155	4.269	0.2138	7.036
CC1=CC[C@@H]2CN(C(=O)c3ccc(-c4cc[nH]n4)cc3)C[C@@H]2C1	-8.183	-	4.509	2.381
Cc1cc(CN2C[C@@H]3CN(Cc4ccsc4)CCO[C@@H]3C2)no1	-7.312	-	-0.07374	0.6536
COCCN1CC[C@@H]2O[C@H](COCc3csc(C)n3)CC[C@@H]21	4.89	-	-4.033	1.269
CN(Cc1cccc2cccnc12)C1CCS(=O)(=O)C1.O=C(O)CC(O)(CC(=O)O)C(=O)O (stereo unspecified)	-	2.842	-	-
CCc1noc(C(C)N2CCN(S(=O)(=O)N3CCCC3)CC2)n1 (stereo unspecified)	-3.759	-8.591	-2.682	2.872
CCn1nccc1CNC(=O)C1CCC1	-3.668	11.99	0	0.8037
COCCNC(=O)c1cc(S(=O)(=O)N2CCCC2)cs1	-5.007	-0.07496	7.776	1.984
Cc1cc(NC2CCN(c3ccccc3)C2)n2ncnc2n1 (stereo unspecified)	0.5719	-12.28	-1.3	8.058
CN(C)CC1CN(C(=O)CCc2ccccc2)Cc2nccn2C1.O=C(O)C(F)(F)F (stereo unspecified)	-	-14.18	-	-
CC(C)(C)C(=O)Cn1nc(C2CC2)cc(C(F)(F)F)c1=O	-7.238	-6.056	-1.544	-0.4202
CN(C)CC(=O)N1CCc2ncnc(-c3ccoc3)c2CC1	-0.1901	7.685	-2.044	-1.057
CCC(C)N1CCc2c(C(=O)N3CCOCC3)n[nH]c2C1 (stereo unspecified)	-15.96	-4.208	-0.7276	0.2545
Cc1ccc2c(n1)N(CCN(C)C)CCN(C(=O)c1ccoc1)C2.O=C(O)C(F)(F)F.O=C(O)C(F)(F)F	-	9.714	-	-
CC(C)N(Cc1cccnc1)C(=O)CNc1ccc(C#N)cc1	2.082	6.679	-3.381	10.54
COCc1nc(-c2ccnc(N3CCNCC3)n2)no1.Cl.Cl	-	1.984	-	-
COCCNC(=O)c1cc(F)ccc1NS(C)(=O)=O	-9.736	4.097	-1.802	0.9153
O=C(CCCOc1cccc(F)c1)N1CCCC(n2cncn2)C1 (stereo unspecified)	-1.836	6.177	-1.988	-7.507
Cc1cc(C)cc(NC(=O)Cc2c(C)nc3c(c2C)c(=O)[nH]n3C)c1	-1.459	-22.22	-2.189	-1.373
c1ccc(-c2cc(CN3CCC(c4ccn[nH]4)CC3)on2)cc1	-5.158	-0.6924	-8.127	-2.345
Cc1cc(C)c(CNC(=O)NCC2Cc3ccccc32)c(=O)[nH]1 (stereo unspecified)	5.33	9.432	6.078	-0.3891
Cc1ccccc1OCCN1CCn2c(C)nnc2C1	31.02	-4.443	12.4	1.145
CC(C)NC(=O)c1cc2c(s1)CCN2C(=O)CN(C)C	-5.124	15.63	-2.628	3.258
CC(O)(CNc1ccc(Cl)c(C#N)n1)c1ccsc1 (stereo unspecified)	11.82	5.202	-1.342	0.8929
CCc1ncc2c(n1)CN(Cc1nc(-c3ccsc3)no1)CC2	-1.065	-3.453	1.462	1.836
Cc1cc(C)n(CCN(C)c2ccc(-c3nc(C4CC4)no3)cn2)n1	-2.023	8.18	-1.888	-1.106
COc1ccc(C)cc1NC(=O)Nc1cnc(N2CCN(C)CC2)nc1	-7.414	0.8869	0.3308	3.169
CC(=O)N1CCC2(CCCN(S(=O)(=O)c3ccc(F)cc3)C2)C1 (stereo unspecified)	-0.6781	2.33	-0.1454	2.445
COCCN1CC(C(=O)N(C)Cc2ccc(Cl)s2)CC1=O (stereo unspecified)	-4.823	0	5.202	3.926
Cc1ccc(N2CCCC(NCc3cccs3)C2)nn1 (stereo unspecified)	-27.24	7.906	-0.1412	-0.8149
CCOc1ccccc1NC(=O)Nc1cc(N2CCCC2)ncn1	-5.292	-2.445	-7.675	1.48
COCCN1C(=O)CC[C@]12CC[C@@H](NCc1nccs1)CC2.O=C(O)C(F)(F)F	-	1.827	-	-
Cc1ccc(C(=O)N2C[C@H]3CCC[C@@]3(COCC3CCOCC3)C2)o1	5.56	-	-1.451	-3.043
CCOC(=O)c1n[nH]cc1CN1CCOC(Cc2ccc(F)cc2)C1 (stereo unspecified)	-14.52	-0.183	-3.207	4.049

The last 5 entries again:

SMILES,ClpP1P2,Toxoplasma,MtTrpRS,CoaBC
Cc1ccc(N2CCCC(NCc3cccs3)C2)nn1 (stereo unspecified),-27.24,7.906,-0.1412,-0.8149
CCOc1ccccc1NC(=O)Nc1cc(N2CCCC2)ncn1,-5.292,-2.445,-7.675,1.48
COCCN1C(=O)CC[C@]12CC[C@@H](NCc1nccs1)CC2.O=C(O)C(F)(F)F,-,1.827,-,-
Cc1ccc(C(=O)N2C[C@H]3CCC[C@@]3(COCC3CCOCC3)C2)o1,5.56,-,-1.451,-3.043
CCOC(=O)c1n[nH]cc1CN1CCOC(Cc2ccc(F)cc2)C1 (stereo unspecified),-14.52,-0.183,-3.207,4.049